Measured values published in patent US20260256923A1, “NEW RECRUITMENT ELEMENT OF UBIQUITIN LIGASE AND USE THEREOF” (SHENZHEN LINGGENE BIOTECH CO., LTD., priority 2023, published 2026).
No constants are given. Whether binding was seen depends on the method and setting. For some assays here: In cells and extracts the contact can be indirect. Some entries that bind do so weakly or less than the wild type.

Chains of the proteins cited; added tags and fusions are not shown. Residues count along the entry.
UniProt Q00987: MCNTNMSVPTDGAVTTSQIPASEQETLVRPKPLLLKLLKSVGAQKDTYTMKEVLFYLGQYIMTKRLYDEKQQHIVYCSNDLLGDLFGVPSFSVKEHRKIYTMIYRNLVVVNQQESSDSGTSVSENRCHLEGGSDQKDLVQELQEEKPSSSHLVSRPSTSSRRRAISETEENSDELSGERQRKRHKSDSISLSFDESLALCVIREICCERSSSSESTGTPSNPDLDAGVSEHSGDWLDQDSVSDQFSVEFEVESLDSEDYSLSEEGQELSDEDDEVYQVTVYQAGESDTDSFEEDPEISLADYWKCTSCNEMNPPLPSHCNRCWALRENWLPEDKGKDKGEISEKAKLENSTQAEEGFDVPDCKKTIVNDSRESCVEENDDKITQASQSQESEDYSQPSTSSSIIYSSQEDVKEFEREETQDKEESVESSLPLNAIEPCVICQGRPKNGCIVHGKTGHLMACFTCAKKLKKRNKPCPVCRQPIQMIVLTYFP
UniProt P19338, residues 2-710: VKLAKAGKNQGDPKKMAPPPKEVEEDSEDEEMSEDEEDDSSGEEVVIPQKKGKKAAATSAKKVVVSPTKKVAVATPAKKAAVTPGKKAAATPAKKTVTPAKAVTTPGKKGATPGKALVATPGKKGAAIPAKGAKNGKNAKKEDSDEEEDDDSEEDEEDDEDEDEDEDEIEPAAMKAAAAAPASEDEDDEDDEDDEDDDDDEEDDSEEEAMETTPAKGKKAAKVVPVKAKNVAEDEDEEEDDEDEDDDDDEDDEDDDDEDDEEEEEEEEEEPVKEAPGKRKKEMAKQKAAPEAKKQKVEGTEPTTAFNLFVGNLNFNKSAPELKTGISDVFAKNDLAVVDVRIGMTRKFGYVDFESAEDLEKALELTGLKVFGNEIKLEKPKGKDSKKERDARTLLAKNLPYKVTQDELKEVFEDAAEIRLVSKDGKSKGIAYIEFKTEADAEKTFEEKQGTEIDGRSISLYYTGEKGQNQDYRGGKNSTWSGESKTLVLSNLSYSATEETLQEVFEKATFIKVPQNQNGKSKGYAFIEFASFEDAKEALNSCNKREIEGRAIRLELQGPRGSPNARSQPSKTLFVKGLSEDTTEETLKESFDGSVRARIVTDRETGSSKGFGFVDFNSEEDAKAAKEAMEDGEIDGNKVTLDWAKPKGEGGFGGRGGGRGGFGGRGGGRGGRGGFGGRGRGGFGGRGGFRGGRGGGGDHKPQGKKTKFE

Legend:
[1] = molecular target: MDM2, endogenous protein in HeLa cervical cancer cell lysate (UniProt Q00987); assay: co-immunoprecipitation from HeLa cell lysate with anti-NCL antibody, western blot (FIG. 1A legend)
[2] = molecular target: MDM2, endogenous protein in HeLa cervical cancer cell lysate (UniProt Q00987); assay: co-immunoprecipitation from HeLa cell lysate with anti-NCL antibody, western blot for MDM2
[3] = molecular target: MDM2, endogenous protein in HeLa cervical cancer cell lysate (UniProt Q00987); assay: co-immunoprecipitation from HeLa cell lysate with anti-NCL antibody, western blot (FIG. 1B legend)
[4] = molecular target: recombinant human MDM2 (purchased from R&D Systems, E3-202-050) (human) (UniProt Q00987); assay: recombinant proteins mixed (2 ug/mL each), immunoprecipitation with anti-NCL antibody, western blot
[5] = molecular target: recombinant human MDM2 (purchased from R&D Systems, E3-202-050) (human) (UniProt Q00987); assay: recombinant proteins, immunoprecipitation with anti-NCL antibody, western blot (FIG. 5A legend)

Substance | binding [1] | binding [2] | binding [3] | binding [4] | binding [5]
Nucleolin (NCL), endogenous protein in HeLa cervical cancer cell lysate (from UniProt P19338 2-710) | binds | binds | binds | – | –
recombinant human NCL (purchased from ACROBiosystems, NUL-H5253) (from UniProt P19338 2-710) | – | – | – | binds | binds
